Test results published in PubChem BioAssay AID720555 (National Center for Advancing Translational Sciences (NCATS), 2013).
Several values for one entry are separate records, joined by “and”; a condition that tells them apart may be missing. Identical values can stand only once. This list was built around the results that the source calls inconclusive (neither active nor inactive); the mix of calls is not that of the screen. A potency beside an inconclusive call is a rough fit, not a confirmed value. Activity calls are given as the source filed them. Calls come from the whole dose curve; as a rule, active = well fitted inhibition curve with a large enough effect; inconclusive = small, poorly fitted or top-dose-only effect; inactive = no such curve, though single readings can be large or run the other way.

Chains of the proteins cited; added tags and fusions are not shown. Lines headed by an entry give the natural chain unless they say otherwise; changes in a name come on top.
UniProt P54132: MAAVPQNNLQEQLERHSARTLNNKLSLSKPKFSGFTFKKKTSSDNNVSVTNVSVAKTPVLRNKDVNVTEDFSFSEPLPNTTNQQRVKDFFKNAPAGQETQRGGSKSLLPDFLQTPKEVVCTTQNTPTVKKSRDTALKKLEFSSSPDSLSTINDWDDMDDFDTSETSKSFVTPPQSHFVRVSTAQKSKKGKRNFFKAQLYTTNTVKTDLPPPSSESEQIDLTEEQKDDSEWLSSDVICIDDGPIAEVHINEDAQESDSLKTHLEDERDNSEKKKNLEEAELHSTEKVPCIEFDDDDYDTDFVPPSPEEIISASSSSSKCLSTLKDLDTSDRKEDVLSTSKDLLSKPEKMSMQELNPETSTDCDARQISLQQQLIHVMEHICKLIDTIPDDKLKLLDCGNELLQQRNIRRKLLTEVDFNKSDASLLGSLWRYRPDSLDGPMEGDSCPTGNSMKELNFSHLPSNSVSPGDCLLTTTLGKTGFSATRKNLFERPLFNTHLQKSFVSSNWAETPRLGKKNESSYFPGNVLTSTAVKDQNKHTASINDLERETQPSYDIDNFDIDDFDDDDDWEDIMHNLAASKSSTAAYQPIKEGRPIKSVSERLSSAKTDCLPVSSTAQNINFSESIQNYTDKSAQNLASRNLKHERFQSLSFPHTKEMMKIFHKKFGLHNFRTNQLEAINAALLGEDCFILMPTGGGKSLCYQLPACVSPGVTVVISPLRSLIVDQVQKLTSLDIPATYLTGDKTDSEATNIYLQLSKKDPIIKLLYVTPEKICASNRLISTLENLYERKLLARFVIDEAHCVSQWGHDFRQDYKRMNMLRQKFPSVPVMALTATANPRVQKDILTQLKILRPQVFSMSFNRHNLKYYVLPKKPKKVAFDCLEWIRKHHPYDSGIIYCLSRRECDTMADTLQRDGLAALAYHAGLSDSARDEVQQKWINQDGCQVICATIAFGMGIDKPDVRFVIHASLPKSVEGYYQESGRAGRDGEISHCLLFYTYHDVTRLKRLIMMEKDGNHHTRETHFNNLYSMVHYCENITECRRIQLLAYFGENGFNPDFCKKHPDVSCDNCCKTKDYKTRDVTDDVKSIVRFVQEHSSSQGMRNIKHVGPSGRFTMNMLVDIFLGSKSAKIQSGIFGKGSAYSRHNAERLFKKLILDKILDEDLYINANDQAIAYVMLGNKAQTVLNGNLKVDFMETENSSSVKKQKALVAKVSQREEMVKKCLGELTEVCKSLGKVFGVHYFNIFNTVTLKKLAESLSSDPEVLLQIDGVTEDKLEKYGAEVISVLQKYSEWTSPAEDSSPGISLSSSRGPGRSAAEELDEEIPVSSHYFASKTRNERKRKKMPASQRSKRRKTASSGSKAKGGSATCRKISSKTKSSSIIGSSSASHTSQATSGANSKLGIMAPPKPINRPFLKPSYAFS

target: RecQ-like DNA helicase BLM (Homo sapiens) (UniProt P54132); test: qHTS for Inhibitors of Bloom's syndrome helicase (BLM): Helicase DNA unwinding fluorescent orthogonal confirmatory assay for SAR; conditions: fluorescence, orthogonal confirmation; series mostly up to 55.6 µM; activity change, negative = inhibition: at the top concentration
Excerpt: Human RecQ DNA helicases participate in maintenance of genome stability and DNA repair. While other types of helicases have been explored as targets for drug development, members of the RecQ family have remained less well characterized. Mutations of the Bloom helicase gene have been associated with the rare human genetic disease called Bloom syndrome. […] Moreover, identified inhibitors can be used in cells and animal models to examine the consequences of inhibition on the survival of cancer cells where it has been shown that BLM plays an important role.
A fluorescence-based, biochemical assay in 1536 well format was developed to evaluate inhibition of BLM DNA unwinding activity. This assay was used to screen the MLPCN library. The resulting compounds were subjected to orthogonal and secondary biochemical assays to triage the initial hits, to classify compounds based on mode of action and to derive structure activity relationships (SARs) of candidate effectors. The data herein is the result of the Helicase DNA unwinding fluorescent orthogonal confirmatory assay. This fluorescent-based assay employs a purified BLM enzyme and utilizes gel electrophoresis to monitor the helicase-mediated unwinding of a fluorescently-labeled DNA substrate. For this assay decrease in the single-stranded DNA product band on the gel = inhibition of the BLM helicase activity. Inhibition is the desired outcome for this assay.
NIH Chemical Genomics Center [NCGC]
NIH Molecular Libraries Probe Centers Network [MLPCN]
Assay Submitter (PI): Opher Gileadi, Structural Genomics Consortium, University of Oxford, UK
Unwinding assay for the BLM helicase was carried out in a reaction buffer containing 50 mM Tris-HCl pH 7.5, 50mM NaCl, 2mM MgCl2, 2mM ATP, 1mM DTT, and 0.1 mg/ml BSA. Optimal substrate and enzyme concentrations as well as reaction times were determined experimentally. All reactions were performed at room temperature and terminated by the addition of loading buffer containing 20mM EDTA and 2.5% bromophenol blue. Reaction products were then separated on 15% non-denaturing polyacrylamide gels in 1x TAE, and the DNA was visualized using the Bio-Rad ChemiDocTM XRS Gel Imager. Substrate and product bands were quantified using ImageJ. The data was normalized against no-inhibitor and no-enzyme controls.

Compound | activity change, negative = inhibition | Potency
O=C(NCc1ccccc1)Nc1nnc(-c2ccncc2)s1 | inactive: -10.1% | 
O=C(Nc1nnc(-c2ccncc2)s1)Oc1ccc2ccccc2c1 |  | inconclusive: 15.8 µM [inhibitor, single point]
O=C(Cc1ccc2ccccc2c1)Nc1nnc(-c2ccncc2)s1 |  | inconclusive: 28.2 µM [inhibitor, single point]
O=C(Nc1ccc(F)c(C(F)(F)F)c1)Nc1nnc(-c2ccncc2)o1 |  | inconclusive: 44.7 µM [inhibitor, partial curve, poor fit]
O=C(Nc1ccc2ccccc2c1)Nc1nnc(-c2ccccc2Cl)s1 | inactive: -10.2% | 
Cc1ccccc1-c1nnc(NC(=O)Nc2ccc3ccccc3c2)s1 |  | inconclusive: 0.501 µM [inhibitor, full curve, poor fit]
c1ccc2[nH]c(Nc3nnc(-c4ccncc4)s3)nc2c1 |  | inconclusive: 31.6 µM [inhibitor, partial curve]
O=C(Nc1ccc(Cl)c(Cl)c1)N1CCN(c2ccncc2)CC1 | inactive: 6% [at 53.6 µM] | 
O=C(Nc1cccc(C(=O)O)c1)Nc1nnc(-c2ccncc2)s1 | inactive: -8.63% | 
CC(=O)c1cccc(NC(=O)Nc2nnc(-c3ccncc3)s2)c1 |  | inconclusive: 25.1 µM [inhibitor, partial curve]
O=C(Nc1nnc(-c2ccncc2)s1)Nc1cccc2ccccc12 |  | inconclusive: 39.8 µM [inhibitor, single point]
Cc1cc(NC(=O)Nc2cccc(-c3ccncc3)n2)ccc1F |  | inconclusive: 11.2 µM [inhibitor, full curve]
O=C(Nc1ccc(Cl)cc1)Nc1nnc(-c2ccncc2)s1 |  | inconclusive: 39.8 µM [inhibitor, single point]
O=C(Nc1ccc(Cl)c(Cl)c1)Nc1ccnc(-c2ccncc2)n1 |  | inconclusive: 31.6 µM [inhibitor, partial curve]
Nc1cc(NC(=O)Nc2nnc(-c3ccncc3)s2)ccc1Cl |  | active: 11.2 µM
CC(C)(C)c1cccc(NC(=O)Nc2nnc(-c3ccncc3)s2)c1 |  | inconclusive: 8.91 µM [inhibitor, partial curve, poor fit]
Cc1cc(C)c(-c2nnc(NC(=O)Nc3ccc4ccccc4c3)s2)c(C)c1 |  | inconclusive: 0.316 µM [inhibitor, full curve, poor fit]
O=C(Nc1ccc2ccccc2c1)Nc1nnc(-c2ccccc2)s1 | inactive: 4.37% | 
COc1ccc(OC)c(-c2nnc(NC(=O)Nc3ccc4ccccc4c3)s2)c1 |  | inconclusive: 25.1 µM [inhibitor, single point]
O=C(Nc1ccc2ccccc2c1)Nc1nnc(-c2ccccn2)s1 |  | inconclusive: 39.8 µM [inhibitor, single point]

Compound | activity change, negative = inhibition | Potency
O=C(Nc1ccc2ccccc2c1)Nc1nnc(-c2ccc(Cl)cc2Cl)s1 |  | inconclusive: 35.5 µM [inhibitor, single point]
O=C(Nc1ccc(-c2ccccc2)cc1)Nc1nnc(-c2ccncc2)s1 |  | inconclusive: 31.6 µM [inhibitor, partial curve]
O=C(Nc1ccc(Cl)c([N+](=O)[O-])c1)Nc1nnc(C2CCCCC2)s1 |  | inconclusive: 35.5 µM [inhibitor, single point]
O=C(Nc1ccc(Cl)c(Cl)c1)Nc1nnc(-c2ccncc2)s1 |  | active: 1.58 µM
O=C(Nc1ccc(-n2cncn2)c(F)c1)Nc1nnc(-c2ccncc2)s1 |  | active: 14.1 µM
CC(C)(C)c1ccc(-c2nnc(NC(=O)Nc3ccc4ccccc4c3)s2)cc1 | inactive: 5.46% | 
O=C(Nc1ccc2c(c1)OCO2)Nc1nnc(-c2ccncc2)s1 |  | inconclusive: 39.8 µM [inhibitor, single point]
O=C(Nc1ccc2ccccc2c1)Nc1nnc(-c2ccc(Cl)cc2)s1 | inactive: -10.2% | 
Cc1ccc(-c2nnc(NC(=O)Nc3ccc4ccccc4c3)s2)cc1 | inactive: -1.64% | 
Cc1ccc(NC(=O)Nc2nnc(-c3ccncc3)s2)cc1C |  | inconclusive: 39.8 µM [inhibitor, single point]
O=C(Nc1ccc(Cl)c(Cl)c1)Nc1nnc(Br)s1 |  | inconclusive: 22.4 µM [inhibitor, partial curve]
Cc1cc(NC(=O)Nc2nnc(-c3cccnc3)s2)ccc1Cl |  | active: 7.94 µM and active: 3.98 µM
N#Cc1cc(NC(=O)Nc2nnc(-c3ccncc3)s2)ccc1Br |  | active: 0.501 µM
O=C(Nc1ccc(Cl)c(Cl)c1)Nc1nnc(-c2cccnc2)s1 |  | active: 3.55 µM
Cc1cc(NC(=O)Nc2cccc(-c3ccncc3)n2)ccc1Br |  | active: 12.6 µM
O=C(Nc1ccc(F)c(C(F)(F)F)c1)Nc1nc(-c2ccncc2)cs1 | inactive: -3.13% [at 53.6 µM] | 
O=C(Nc1nnc(-c2ccncc2)s1)Nc1cc(C(F)(F)F)ccc1F |  | inconclusive: 0.794 µM [inhibitor, full curve, poor fit]
O=C(Nc1ccc(-c2cn[nH]c2)c(C(F)(F)F)c1)Nc1nnc(-c2ccncc2)s1 |  | active: 15.8 µM
O=C(Nc1ccc(F)c(C(F)(F)F)c1)Nc1nnc(C2CCCCC2)s1 | inactive: 5.75% | 
O=C(Nc1nnc(-c2ccncc2)s1)NC12CC3CC(CC(C3)C1)C2 |  | inconclusive: 39.8 µM [inhibitor, single point]
